For three molecules, binding results are on record in publication PMC11977219.

Chains of the proteins cited; added tags and fusions are not shown. Lines headed by an entry give the natural chain unless they say otherwise; changes in a name come on top.
UniProt P42224: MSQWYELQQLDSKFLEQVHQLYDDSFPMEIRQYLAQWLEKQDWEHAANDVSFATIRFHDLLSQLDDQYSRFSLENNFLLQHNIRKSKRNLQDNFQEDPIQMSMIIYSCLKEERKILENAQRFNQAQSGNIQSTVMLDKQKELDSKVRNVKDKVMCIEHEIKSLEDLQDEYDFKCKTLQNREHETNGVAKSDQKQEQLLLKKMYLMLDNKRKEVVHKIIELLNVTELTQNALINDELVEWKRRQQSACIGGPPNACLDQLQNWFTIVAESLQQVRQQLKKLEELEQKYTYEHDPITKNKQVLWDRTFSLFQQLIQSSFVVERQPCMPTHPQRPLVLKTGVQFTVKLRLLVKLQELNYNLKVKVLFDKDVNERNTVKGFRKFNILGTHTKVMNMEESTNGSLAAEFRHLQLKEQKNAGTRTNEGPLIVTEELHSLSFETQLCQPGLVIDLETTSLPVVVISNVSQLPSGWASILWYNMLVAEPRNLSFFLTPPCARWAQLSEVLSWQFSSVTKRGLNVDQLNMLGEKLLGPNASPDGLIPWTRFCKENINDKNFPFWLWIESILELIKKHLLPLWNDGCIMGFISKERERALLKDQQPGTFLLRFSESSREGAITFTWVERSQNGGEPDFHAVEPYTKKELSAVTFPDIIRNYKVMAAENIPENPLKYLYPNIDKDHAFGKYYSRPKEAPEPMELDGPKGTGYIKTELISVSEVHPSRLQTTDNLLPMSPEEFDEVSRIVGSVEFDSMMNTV

No constants are given. Whether binding was seen depends on the method and setting. In cells and extracts the contact can be indirect. Some results given as binding are weak or reduced against the parent protein; the word gives no strength. For part of these data: Tags and fused reporters may be left off the sequences shown.

Assay [1] deals with Flag-STAT1 (HL-1 cells) (human) (UniProt P42224). In words: co-IP; HL-1 cells transfected with Flag-STAT1 and Myc-Viperin, then treated with or without VS-IP1 (200 μM) for 12 h; also Supplementary Fig. S7a (cells not shown).
Assay [2] has as its target STAT1 (as tested against the Viperin deletion mutants) (UniProt P42224). In words: co-IP; tagged wild-type proteins and deletion mutants of Viperin or STAT1 in transfected cells (Supplementary Figs. S3f, S6a, S6b; cells and baits not shown).
The target of assay [3] is Myc-His-tagged STAT1-WT (human) (UniProt P42224). The assay is described as above.

B1: Myc-Viperin (HL-1 cells) (protein, UniProt Q8WXG1 1-361)
chain: MWVLTPAAFAGKLLSVFRQPLSSLWRSLVPLFCWLRATFWLLATKRRKQQLVLRGPDETKEEEEDPPLPTTPTSVNYHFTRQCNYKCGFCFHTAKTSFVLPLEEAKRGLLLLKEAGMEKINFSGGEPFLQDRGEYLGKLVRFCKVELRLPSVSIVSNGSLIRERWFQNYGEYLDILAISCDSFDEEVNVLIGRGQGKKNHVENLQKLRRWCRDYRVAFKINSVINRFNVEEDMTEQIKALNPVRWKVFQCLLIEGENCGEDALREAERFVIGDEEFERFLERHKEVSCLVPESNQKMKDSYLILDEYMRFLNCRKGRKDPSKSILDVGVEEAIKFSGFDEKMFLKRGGKYIWSKADLKLDW
Turning to B1, the binding result in assay [1] was “binds”.

B2: Myc-tagged human Viperin (WT) (protein, UniProt Q8WXG1 1-361)
chain: MWVLTPAAFAGKLLSVFRQPLSSLWRSLVPLFCWLRATFWLLATKRRKQQLVLRGPDETKEEEEDPPLPTTPTSVNYHFTRQCNYKCGFCFHTAKTSFVLPLEEAKRGLLLLKEAGMEKINFSGGEPFLQDRGEYLGKLVRFCKVELRLPSVSIVSNGSLIRERWFQNYGEYLDILAISCDSFDEEVNVLIGRGQGKKNHVENLQKLRRWCRDYRVAFKINSVINRFNVEEDMTEQIKALNPVRWKVFQCLLIEGENCGEDALREAERFVIGDEEFERFLERHKEVSCLVPESNQKMKDSYLILDEYMRFLNCRKGRKDPSKSILDVGVEEAIKFSGFDEKMFLKRGGKYIWSKADLKLDW
With B2, in assay [2], the binding entry is given as “binds”.

B3: Viperin (as tested against the STAT1 deletion mutants) (protein, UniProt Q8WXG1 1-361)
chain: MWVLTPAAFAGKLLSVFRQPLSSLWRSLVPLFCWLRATFWLLATKRRKQQLVLRGPDETKEEEEDPPLPTTPTSVNYHFTRQCNYKCGFCFHTAKTSFVLPLEEAKRGLLLLKEAGMEKINFSGGEPFLQDRGEYLGKLVRFCKVELRLPSVSIVSNGSLIRERWFQNYGEYLDILAISCDSFDEEVNVLIGRGQGKKNHVENLQKLRRWCRDYRVAFKINSVINRFNVEEDMTEQIKALNPVRWKVFQCLLIEGENCGEDALREAERFVIGDEEFERFLERHKEVSCLVPESNQKMKDSYLILDEYMRFLNCRKGRKDPSKSILDVGVEEAIKFSGFDEKMFLKRGGKYIWSKADLKLDW
As for B3, the binding entry in assay [3] is on record as “binds”.
